No constants are given. Whether binding was seen depends on the method and setting. Binding calls can cover weak binding; strength is not graded here. Tags and fused reporters may be left off the sequences shown.
Molecular target: T1, MBP-BBS8 (C. reinhardtii)
T1 sequence: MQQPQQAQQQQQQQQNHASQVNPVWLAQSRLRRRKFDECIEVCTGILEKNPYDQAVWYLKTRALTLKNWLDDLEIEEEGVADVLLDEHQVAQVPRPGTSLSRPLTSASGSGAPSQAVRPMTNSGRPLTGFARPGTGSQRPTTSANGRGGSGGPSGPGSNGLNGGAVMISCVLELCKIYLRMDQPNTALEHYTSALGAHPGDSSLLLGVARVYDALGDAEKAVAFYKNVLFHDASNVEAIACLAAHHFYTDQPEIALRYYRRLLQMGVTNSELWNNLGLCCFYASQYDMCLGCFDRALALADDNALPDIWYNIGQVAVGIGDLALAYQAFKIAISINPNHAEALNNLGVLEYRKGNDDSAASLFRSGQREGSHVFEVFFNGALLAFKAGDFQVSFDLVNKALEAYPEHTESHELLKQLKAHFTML
Test: pull-down

“RAB18Q67L (bacterially expressed) (C. reinhardtii)” was tested, and the binding was “binds”.

— paper doi:10.1101/2025.02.04.636545
